Experimental data taken from doi:10.1101/2024.06.20.599818.
Results are given in words; binding and its absence hold for the method and conditions named. In cells and extracts the contact can be indirect. Some binding calls cover weakened binding; strength is not graded here. For some of these results: Tags and fused reporters may be left off the sequences shown.

T1: PPTC7, ectopically overexpressed (UniProt Q8NI37)
T1 sequence: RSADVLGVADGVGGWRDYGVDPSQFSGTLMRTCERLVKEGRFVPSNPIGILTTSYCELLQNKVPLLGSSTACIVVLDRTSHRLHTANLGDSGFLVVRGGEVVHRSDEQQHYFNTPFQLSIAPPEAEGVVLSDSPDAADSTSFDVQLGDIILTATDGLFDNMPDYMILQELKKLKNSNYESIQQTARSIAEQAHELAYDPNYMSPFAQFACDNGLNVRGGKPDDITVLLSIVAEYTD

T2: FLAG-FBXL4 (UniProt Q9UKA2)
T2 sequence: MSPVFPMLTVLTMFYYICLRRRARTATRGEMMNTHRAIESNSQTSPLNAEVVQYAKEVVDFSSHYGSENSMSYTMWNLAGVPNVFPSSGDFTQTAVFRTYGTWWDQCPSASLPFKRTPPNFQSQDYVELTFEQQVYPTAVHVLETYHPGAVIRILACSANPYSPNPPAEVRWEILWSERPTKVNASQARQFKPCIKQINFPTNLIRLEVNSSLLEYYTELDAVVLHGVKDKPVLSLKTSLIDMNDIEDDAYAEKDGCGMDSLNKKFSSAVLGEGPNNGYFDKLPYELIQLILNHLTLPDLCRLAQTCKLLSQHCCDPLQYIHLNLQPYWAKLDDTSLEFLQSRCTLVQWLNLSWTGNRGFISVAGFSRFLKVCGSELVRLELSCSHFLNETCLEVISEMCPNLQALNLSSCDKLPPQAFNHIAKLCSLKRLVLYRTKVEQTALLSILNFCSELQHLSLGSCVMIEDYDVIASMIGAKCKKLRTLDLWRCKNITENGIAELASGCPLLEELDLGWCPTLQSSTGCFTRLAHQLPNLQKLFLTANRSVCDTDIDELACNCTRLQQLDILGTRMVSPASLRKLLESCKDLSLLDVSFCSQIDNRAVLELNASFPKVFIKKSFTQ

T3: FLAG-PPTC7 (UniProt Q8NI37)
T3 sequence: T1 sequence

B1: FBXL4, exogenous (protein, UniProt Q9UKA2 1-621)
chain: T2 sequence
B2: endogenous PPTC7 (protein, UniProt Q8NI37 69-304)
chain: T1 sequence
B3: endogenous FBXL4 (protein, UniProt Q9UKA2 1-621)
chain: T2 sequence
B4: NIPSNAP1, from a transfected plasmid (protein, UniProt Q9BPW8 36-284)
chain: SKDNEGSWFRSLFVHKVDPRKDAHSTLLSKKETSNLYKIQFHNVKPEYLDAYNSLTEAVLPKLHLDEDYPCSLVGNWNTWYGEQDQAVHLWRFSGGYPALMDCMNKLKNNKEYLEFRRERSQMLLSRRNQLLLEFSFWNEPQPRMGPNIYELRTYKLKPGTMIEWGNNWARAIKYRQENQEAVGGFFSQIGELYVVHHLWAYKDLQSREETRNAAWRKRGWDENVYYTVPLVRHMESRIMIPLKISPLQ

Tests used:
Assay in all cases: co-IP
[1] = target: T1, PPTC7, ectopically overexpressed
FLAG-FBXL4 = target: T2, FLAG-FBXL4
FLAG-PPTC7 = target: T3, FLAG-PPTC7

Row | Binder | binding [1] | further results
1 | B1 | binds | 
2 | B2 |  | binding (FLAG-FBXL4): binds
3 | B3 |  | binding (FLAG-PPTC7): binds
4 | B4 | no binding | 
